Results: paper PMC4019850

Experiments:
[1] = target: GST fusion of SCRIB PDZ 1-2 (human); experiment: pull-down; GST fusions of SCRIB PDZ domains used to affinity purify extracts of E. coli cells expressing HIS-tagged DUSP26; only the target purified
[2] = target: GST fusion of the N-terminal SH3 domain of GRB2; experiment: pull-down; 50 μg GST fusion of a GRB2 domain incubated with lysate (RIPA buffer) of HeLa transfected with Flag-PTPN21, in presence or absence of Y527F SRC; glutathione-Sepharose 4B, 4°C; blot with anti-Flag; only the target purified
[3] = target: GST fusion of the C-terminal SH3 domain of GRB2; experiment: as above

| binding [1] | binding [2] | binding [3] | Binder |
| --- | --- | --- | --- |
| no binding |  |  | HIS-tagged DUSP26 (enzyme, UniProt Q9BV47 1-211) MCPGNWLWASMTFMARFSRSSSRSPVRTRGTLEEMPTVQHPFLNVFELERLLYTGKTACNHADEVWPGLYLGDQDMANNRRELRRLGITHVLNASHSRWRGTPEAYEGLGIRYLGVEAHDSPAFDMSIHFQTAADFIHRALSQPGGKILVHCAVGVSRSATLVLAYLMLYHHLTLVEAIKKVKDHRGIIPNRGFLRQLLALDRRLRQGLEA |
|  | binds | binds | Flag-PTPN21 (enzyme, UniProt Q16825 1-1174) MPLPFGLKLKRTRRYTVSSKSCLVARIQLLNNEFVEFTLSVESTGQESLEAVAQRLELREVTYFSLWYYNKQNQRRWVDLEKPLKKQLDKYALEPTVYFGVVFYVPSVSQLQQEITRYQYYLQLKKDILEGSIPCTLEQAIQLAGLAVQADFGDFDQYESQDFLQKFALFPVGWLQDEKVLEEATQKVALLHQKYRGLTAPDAEMLYMQEVERMDGYGEESYPAKDSQGSDISIGACLEGIFVKHKNGRHPVVFRWHDIANMSHNKSFFALELANKEETIQFQTEDMETAKYIWRLCVARHKFYRLNQCNLQTQTVTVNPIRRRSSSRMSLPKPQPYVMPPPPQLHYNGHYTEPYASSQDNLFVPNQNGYYCHSQTSLDRAQIDLNGRIRNGSVYSAHSTNSLNNPQPYLQPSPMSSNPSITGSDVMRPDYLPSHRHSAVIPPSYRPTPDYETVMKQLNRGLVHAERQSHSLRNLNIGSSYAYSRPAALVYSQPEIREHAQLPSPAAAHCPFSLSYSFHSPSPYPYPAERRPVVGAVSVPELTNAQLQAQDYPSPNIMRTQVYRPPPPYPPPRPANSTPDLSRHLYISSSNPDLITRRVHHSVQTFQEDSLPVAHSLQEVSEPLTAARHAQLHKRNSIEVAGLSHGLEGLRLKERTLSASAAEVAPRAVSVGSQPSVFTERTQREGPEEAEGLRYGHKKSLSDATMLIHSSEEEEDEDFEEESGARAPPARAREPRPGLAQDPPGCPRVLLAGPLHILEPKAHVPDAEKRMMDSSPVRTTAEAQRPWRDGLLMPSMSESDLTTSGRYRARRDSLKKRPVSDLLSGKKNIVEGLPPLGGMKKTRVDAKKIGPLKLAALNGLSLSRVPLPDEGKEVATRATNDERCKILEQRLEQGMVFTEYERILKKRLVDGECSTARLPENAERNRFQDVLPYDDVRVELVPTKENNTGYINASHIKVSVSGIEWDYIATQGPLQNTCQDFWQMVWEQGIAIIAMVTAEEEGGREKSFRYWPRLGSRHNTVTYGRFKITTRFRTDSGCYATTGLKMKHLLTGQERTVWHLQYTDWPEHGCPEDLKGFLSYLEEIQSVRRHTNSTSDPQSPNPPLLVHCSAGVGRTGVVILSEIMIACLEHNEVLDIPRVLDMLRQQRMMLVQTLCQYTFVYRVLIQFLKSSRLI |

No constants are given. Whether binding was seen depends on the method and setting. In cells and extracts the contact can be indirect. For part of these data: Binding can be weak; no strength is given. Sequences can lack the tags named with a protein.
